Compound in the assay: Nc1nc2c(ncn2[C@@H]2O[C@H](COP(=O)(O)OP(=O)(O)OP(=O)(O)O)[C@@H](O)[C@H]2O)c(=O)[nH]1 [guanosine triphosphate]
The assay is described as follows: NP40-soluble protein abundance relative to vehicle (solubility fold change) (ratio); higher = more soluble protein in presence of GTP. The procedure: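 Solubility proteome profiling in Jurkat crude lysate. Lysate was treated with Mg-GTP (0.1-10 mM) for 10 min at room temperature and 3 min at 37 °C, then solubilised with 0.8% NP40 and benzonase, followed by ultracentrifugation. Proteins were quantified by TMT10 LC-MS/MS; the value is the NP40-soluble abundance relative to the NP40-processed vehicle, from 3 independent experiments.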

By UniProt entry, the sequences of proteins in these tests, tags left out. Where a name states a change or a piece, a line headed by the entry shows the natural chain unless it says otherwise.
UniProt Q9NZC3: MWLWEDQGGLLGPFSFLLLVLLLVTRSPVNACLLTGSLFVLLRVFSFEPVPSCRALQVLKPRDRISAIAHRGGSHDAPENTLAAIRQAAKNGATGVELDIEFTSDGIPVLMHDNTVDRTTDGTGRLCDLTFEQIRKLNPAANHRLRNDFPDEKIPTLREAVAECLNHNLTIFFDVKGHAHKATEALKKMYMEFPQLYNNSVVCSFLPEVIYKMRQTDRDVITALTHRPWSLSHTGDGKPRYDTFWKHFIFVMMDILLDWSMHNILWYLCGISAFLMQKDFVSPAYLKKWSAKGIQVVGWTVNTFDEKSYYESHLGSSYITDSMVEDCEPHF
UniProt Q92879: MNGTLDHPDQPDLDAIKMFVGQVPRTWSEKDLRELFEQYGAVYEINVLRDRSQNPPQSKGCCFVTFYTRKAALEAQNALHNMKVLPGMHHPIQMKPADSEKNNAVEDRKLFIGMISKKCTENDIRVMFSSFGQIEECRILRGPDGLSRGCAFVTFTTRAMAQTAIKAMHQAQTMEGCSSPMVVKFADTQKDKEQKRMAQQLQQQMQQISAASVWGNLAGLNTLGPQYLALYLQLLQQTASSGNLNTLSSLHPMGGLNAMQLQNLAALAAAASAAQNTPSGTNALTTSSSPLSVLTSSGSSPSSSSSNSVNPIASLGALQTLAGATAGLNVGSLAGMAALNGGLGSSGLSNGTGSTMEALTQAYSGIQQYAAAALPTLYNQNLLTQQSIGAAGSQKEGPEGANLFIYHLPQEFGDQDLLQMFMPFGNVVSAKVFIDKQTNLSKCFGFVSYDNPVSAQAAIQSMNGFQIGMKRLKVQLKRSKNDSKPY
UniProt P61960, whole entry: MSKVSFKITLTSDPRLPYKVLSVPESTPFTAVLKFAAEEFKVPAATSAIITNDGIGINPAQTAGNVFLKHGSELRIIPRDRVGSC
UniProt Q9Y4L1: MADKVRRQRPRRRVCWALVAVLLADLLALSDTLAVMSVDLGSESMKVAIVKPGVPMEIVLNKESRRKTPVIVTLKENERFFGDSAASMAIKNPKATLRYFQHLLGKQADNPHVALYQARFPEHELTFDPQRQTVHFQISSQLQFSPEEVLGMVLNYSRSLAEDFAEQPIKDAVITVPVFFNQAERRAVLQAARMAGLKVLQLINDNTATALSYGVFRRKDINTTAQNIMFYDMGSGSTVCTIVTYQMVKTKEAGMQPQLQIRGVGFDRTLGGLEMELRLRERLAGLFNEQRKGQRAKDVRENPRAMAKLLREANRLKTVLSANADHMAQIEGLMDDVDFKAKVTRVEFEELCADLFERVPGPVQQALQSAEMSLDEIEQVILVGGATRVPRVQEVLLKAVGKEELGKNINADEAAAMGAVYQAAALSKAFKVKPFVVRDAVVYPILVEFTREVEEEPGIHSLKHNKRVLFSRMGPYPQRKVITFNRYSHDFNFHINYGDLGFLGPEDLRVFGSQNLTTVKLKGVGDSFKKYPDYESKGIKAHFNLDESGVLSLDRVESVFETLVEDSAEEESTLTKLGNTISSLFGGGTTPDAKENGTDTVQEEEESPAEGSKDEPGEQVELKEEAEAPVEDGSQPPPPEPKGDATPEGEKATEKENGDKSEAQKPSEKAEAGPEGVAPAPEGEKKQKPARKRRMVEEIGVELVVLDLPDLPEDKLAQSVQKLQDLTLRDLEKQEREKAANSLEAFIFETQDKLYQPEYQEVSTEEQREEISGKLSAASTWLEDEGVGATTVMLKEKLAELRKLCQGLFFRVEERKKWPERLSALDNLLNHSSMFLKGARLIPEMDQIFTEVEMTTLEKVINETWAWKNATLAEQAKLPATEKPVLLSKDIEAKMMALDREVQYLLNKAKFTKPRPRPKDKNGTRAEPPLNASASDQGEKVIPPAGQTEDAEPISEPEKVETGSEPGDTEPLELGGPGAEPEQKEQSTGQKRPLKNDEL
UniProt Q9Y375: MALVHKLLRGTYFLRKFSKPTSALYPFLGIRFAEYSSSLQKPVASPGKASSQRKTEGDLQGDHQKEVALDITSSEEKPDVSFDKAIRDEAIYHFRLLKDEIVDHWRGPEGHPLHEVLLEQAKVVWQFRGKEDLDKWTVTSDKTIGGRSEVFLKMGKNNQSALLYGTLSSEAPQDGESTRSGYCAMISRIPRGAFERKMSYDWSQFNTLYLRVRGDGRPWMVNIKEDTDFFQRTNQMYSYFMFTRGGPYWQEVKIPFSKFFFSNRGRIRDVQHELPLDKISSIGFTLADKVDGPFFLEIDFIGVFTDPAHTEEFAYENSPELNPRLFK

± gives the standard deviation of the averaged measurements. The list shows a part of the results.

For the target “H3BNA5 and related entries (UniProt Q9NZC3)”, the NP40-soluble protein abundance (concentration: 0.1mM) was determined as 0.999 ± 0.024; the NP40-soluble protein abundance (concentration: 0.5mM) was 0.959 ± 0.028; the NP40-soluble protein abundance (concentration: 1mM) was 0.958 ± 0.035; the NP40-soluble protein abundance (concentration: 2mM) amounted to 0.961 ± 0.026; the NP40-soluble protein abundance (concentration: 4mM) turned out to be 0.944 ± 0.054; the NP40-soluble protein abundance (concentration: 6mM) amounted to 0.913 ± 0.045. Besides, the NP40-soluble protein abundance (concentration: 8mM) was found to be 0.905 ± 0.067 and the NP40-soluble protein abundance (concentration: 10mM) came to 0.897 ± 0.059.

Consider “G5EA30 and related entries (UniProt Q92879)”, for which the NP40-soluble protein abundance (concentration: 0.1mM) amounted to 0.962 ± 0.08; the NP40-soluble protein abundance (concentration: 0.5mM) amounted to 0.968 ± 0.038; the NP40-soluble protein abundance (concentration: 1mM) amounted to 0.972 ± 0.05; the NP40-soluble protein abundance (concentration: 2mM) was found to be 0.942 ± 0.062; the NP40-soluble protein abundance (concentration: 4mM) was 0.925 ± 0.046; the NP40-soluble protein abundance (concentration: 6mM) came to 0.916 ± 0.067. In addition, the NP40-soluble protein abundance was 0.942 ± 0.049 (concentration: 8mM) and 0.931 ± 0.08 (concentration: 10mM).

Turning to “H0Y614 and related entries (UniProt P61960)”, the NP40-soluble protein abundance reads like this: (concentration: 0.1mM) 1.04 ± 0.18; (concentration: 0.5mM) 0.983 ± 0.17; (concentration: 1mM) 1.08 ± 0.17; (concentration: 2mM) 1.11 ± 0.11; (concentration: 4mM) 1.17 ± 0.16; (concentration: 6mM) 1.1 ± 0.13. Besides, the NP40-soluble protein abundance is, setting by setting: (concentration: 8mM) 1.15 ± 0.19; (concentration: 10mM) 1.16 ± 0.16.

Turning to “J3QL06 and related entries (UniProt Q9Y4L1)”, the NP40-soluble protein abundance was 0.913 ± 0.088 (concentration: 0.1mM); 0.942 ± 0.093 (concentration: 0.5mM); 0.926 ± 0.095 (concentration: 1mM); 0.877 ± 0.087 (concentration: 2mM); 0.859 ± 0.084 (concentration: 4mM); 0.89 ± 0.087 (concentration: 6mM). In addition, the NP40-soluble protein abundance (concentration: 8mM) is 0.88 ± 0.091 and the NP40-soluble protein abundance (concentration: 10mM) came to 0.88 ± 0.088.

In the case of “H0YL22 and related entries (UniProt Q9Y375)”, the NP40-soluble protein abundance is 0.979 ± 0.059 (concentration: 0.1mM); 1.05 ± 0.082 (concentration: 0.5mM); 0.936 ± 0.088 (concentration: 1mM); 0.969 ± 0.071 (concentration: 2mM); 0.922 ± 0.036 (concentration: 4mM); 0.924 ± 0.065 (concentration: 6mM). In addition, the NP40-soluble protein abundance (concentration: 8mM) was determined as 0.921 ± 0.071 and the NP40-soluble protein abundance (concentration: 10mM) was 0.943 ± 0.059.

The record behind these values is the supplement of paper PMC6411743.
